Assay results as given in the supplement of paper PMC10849652.
Some of the results follow.

Chains of the proteins cited; added tags and fusions are not shown. Lines headed by an entry give the natural chain unless they say otherwise; changes in a name come on top.
UniProt O00273: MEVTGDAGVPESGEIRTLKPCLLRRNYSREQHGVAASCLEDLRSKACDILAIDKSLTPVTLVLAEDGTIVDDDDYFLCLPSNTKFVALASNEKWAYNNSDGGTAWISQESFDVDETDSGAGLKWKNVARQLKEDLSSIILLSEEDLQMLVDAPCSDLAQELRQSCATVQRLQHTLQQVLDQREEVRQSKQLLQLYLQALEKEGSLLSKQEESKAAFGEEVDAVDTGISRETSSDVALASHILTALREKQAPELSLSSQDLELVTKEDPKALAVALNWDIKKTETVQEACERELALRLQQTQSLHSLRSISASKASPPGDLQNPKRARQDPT
UniProt Q6UWP2: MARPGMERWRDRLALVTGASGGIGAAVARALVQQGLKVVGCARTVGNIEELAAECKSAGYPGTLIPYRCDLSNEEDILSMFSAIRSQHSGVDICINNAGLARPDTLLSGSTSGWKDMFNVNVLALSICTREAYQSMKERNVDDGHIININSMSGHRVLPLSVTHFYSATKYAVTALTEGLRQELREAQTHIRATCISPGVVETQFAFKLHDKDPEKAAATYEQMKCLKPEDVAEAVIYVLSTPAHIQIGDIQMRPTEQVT
UniProt Q14562: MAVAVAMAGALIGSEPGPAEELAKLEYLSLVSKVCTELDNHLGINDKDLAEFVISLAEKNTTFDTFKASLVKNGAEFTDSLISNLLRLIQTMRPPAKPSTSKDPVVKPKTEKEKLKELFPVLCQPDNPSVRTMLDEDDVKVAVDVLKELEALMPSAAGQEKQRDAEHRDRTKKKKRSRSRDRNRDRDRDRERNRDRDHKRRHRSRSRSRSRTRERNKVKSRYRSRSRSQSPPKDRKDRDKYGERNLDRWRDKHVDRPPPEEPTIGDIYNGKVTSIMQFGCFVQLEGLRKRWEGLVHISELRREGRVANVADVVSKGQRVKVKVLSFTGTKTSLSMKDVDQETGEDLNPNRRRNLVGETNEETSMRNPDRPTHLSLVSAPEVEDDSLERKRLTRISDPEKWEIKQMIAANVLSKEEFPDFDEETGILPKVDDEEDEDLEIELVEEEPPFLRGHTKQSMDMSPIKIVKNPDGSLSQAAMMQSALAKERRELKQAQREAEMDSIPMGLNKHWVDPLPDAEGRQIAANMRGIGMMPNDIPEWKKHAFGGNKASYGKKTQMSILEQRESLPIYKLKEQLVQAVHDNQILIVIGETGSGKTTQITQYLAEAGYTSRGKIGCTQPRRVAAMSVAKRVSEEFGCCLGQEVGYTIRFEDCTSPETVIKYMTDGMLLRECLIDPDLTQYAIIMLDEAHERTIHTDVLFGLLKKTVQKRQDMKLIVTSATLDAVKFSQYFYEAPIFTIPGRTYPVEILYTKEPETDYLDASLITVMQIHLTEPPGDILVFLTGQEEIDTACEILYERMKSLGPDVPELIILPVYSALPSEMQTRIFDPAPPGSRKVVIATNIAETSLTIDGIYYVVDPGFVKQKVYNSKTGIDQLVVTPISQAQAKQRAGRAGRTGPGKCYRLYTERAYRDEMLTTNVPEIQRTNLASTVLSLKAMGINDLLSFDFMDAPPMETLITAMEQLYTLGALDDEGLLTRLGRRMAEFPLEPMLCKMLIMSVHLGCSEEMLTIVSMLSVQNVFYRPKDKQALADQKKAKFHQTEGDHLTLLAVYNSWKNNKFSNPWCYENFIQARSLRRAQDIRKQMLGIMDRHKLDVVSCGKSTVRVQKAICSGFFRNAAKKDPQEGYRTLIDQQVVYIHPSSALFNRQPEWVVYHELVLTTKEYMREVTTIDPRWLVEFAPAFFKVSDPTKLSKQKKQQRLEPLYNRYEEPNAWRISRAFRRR
UniProt Q9Y394: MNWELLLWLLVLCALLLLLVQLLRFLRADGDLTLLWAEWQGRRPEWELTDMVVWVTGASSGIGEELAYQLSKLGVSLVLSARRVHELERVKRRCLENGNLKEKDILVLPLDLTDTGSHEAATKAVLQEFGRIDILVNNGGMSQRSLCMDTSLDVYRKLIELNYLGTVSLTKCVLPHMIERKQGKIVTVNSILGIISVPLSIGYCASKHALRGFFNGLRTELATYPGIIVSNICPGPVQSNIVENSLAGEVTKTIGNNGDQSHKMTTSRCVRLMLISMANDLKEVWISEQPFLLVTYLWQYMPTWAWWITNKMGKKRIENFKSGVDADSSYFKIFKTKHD
UniProt P36957: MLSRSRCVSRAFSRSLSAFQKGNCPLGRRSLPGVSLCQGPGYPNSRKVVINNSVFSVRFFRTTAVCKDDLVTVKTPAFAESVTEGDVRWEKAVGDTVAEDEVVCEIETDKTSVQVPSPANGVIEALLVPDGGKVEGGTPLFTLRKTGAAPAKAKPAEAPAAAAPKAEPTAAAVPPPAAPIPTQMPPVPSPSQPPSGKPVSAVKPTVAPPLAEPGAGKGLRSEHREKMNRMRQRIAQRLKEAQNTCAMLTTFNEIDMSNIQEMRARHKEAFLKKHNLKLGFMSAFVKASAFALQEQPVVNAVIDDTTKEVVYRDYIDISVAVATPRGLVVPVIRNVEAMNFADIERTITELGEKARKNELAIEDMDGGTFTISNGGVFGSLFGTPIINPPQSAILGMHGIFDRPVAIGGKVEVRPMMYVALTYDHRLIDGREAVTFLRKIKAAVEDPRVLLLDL
UniProt Q9NW81: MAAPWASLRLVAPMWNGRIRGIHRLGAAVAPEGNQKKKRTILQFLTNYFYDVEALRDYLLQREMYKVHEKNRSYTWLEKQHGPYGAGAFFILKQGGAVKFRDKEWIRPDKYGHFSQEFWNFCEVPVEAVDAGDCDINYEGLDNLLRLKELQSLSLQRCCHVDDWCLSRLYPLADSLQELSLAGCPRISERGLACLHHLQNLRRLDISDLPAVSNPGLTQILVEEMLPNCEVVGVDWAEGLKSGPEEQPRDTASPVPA
UniProt O60884: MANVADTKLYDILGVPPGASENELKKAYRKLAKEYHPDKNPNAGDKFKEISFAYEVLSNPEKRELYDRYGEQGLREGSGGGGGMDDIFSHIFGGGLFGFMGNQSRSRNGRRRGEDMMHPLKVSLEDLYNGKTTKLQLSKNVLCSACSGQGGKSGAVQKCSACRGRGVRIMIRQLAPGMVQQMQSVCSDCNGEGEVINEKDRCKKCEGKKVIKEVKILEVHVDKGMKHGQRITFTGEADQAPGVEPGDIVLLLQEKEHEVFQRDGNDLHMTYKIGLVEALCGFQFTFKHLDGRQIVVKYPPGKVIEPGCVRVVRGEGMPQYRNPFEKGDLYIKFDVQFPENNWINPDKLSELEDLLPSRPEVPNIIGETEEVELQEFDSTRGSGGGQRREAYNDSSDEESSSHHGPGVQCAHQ
UniProt Q9NUI1: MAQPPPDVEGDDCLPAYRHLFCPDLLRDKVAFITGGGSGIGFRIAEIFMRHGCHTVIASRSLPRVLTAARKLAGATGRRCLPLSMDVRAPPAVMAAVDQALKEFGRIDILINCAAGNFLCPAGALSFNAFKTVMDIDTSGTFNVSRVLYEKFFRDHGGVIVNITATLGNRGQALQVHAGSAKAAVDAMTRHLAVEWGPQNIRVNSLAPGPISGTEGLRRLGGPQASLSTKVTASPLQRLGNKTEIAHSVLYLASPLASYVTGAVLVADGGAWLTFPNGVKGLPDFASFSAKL
UniProt Q9NVP1: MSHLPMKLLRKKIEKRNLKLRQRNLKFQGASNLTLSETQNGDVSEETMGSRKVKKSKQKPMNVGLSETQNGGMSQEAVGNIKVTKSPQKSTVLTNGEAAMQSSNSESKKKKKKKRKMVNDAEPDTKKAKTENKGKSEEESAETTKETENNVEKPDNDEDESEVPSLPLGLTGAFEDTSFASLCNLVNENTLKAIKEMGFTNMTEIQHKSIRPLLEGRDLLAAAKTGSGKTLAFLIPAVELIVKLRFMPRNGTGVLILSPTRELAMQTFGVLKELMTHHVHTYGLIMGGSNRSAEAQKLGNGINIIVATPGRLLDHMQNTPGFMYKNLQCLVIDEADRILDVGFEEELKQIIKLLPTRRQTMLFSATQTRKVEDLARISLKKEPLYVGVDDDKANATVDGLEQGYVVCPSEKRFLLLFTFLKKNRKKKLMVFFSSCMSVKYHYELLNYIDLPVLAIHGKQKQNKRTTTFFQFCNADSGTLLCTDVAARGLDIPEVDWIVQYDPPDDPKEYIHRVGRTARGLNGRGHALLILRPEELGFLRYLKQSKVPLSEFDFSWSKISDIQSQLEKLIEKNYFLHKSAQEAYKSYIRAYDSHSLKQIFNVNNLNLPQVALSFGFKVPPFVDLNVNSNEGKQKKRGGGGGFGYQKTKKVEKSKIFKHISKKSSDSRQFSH
UniProt Q6P158: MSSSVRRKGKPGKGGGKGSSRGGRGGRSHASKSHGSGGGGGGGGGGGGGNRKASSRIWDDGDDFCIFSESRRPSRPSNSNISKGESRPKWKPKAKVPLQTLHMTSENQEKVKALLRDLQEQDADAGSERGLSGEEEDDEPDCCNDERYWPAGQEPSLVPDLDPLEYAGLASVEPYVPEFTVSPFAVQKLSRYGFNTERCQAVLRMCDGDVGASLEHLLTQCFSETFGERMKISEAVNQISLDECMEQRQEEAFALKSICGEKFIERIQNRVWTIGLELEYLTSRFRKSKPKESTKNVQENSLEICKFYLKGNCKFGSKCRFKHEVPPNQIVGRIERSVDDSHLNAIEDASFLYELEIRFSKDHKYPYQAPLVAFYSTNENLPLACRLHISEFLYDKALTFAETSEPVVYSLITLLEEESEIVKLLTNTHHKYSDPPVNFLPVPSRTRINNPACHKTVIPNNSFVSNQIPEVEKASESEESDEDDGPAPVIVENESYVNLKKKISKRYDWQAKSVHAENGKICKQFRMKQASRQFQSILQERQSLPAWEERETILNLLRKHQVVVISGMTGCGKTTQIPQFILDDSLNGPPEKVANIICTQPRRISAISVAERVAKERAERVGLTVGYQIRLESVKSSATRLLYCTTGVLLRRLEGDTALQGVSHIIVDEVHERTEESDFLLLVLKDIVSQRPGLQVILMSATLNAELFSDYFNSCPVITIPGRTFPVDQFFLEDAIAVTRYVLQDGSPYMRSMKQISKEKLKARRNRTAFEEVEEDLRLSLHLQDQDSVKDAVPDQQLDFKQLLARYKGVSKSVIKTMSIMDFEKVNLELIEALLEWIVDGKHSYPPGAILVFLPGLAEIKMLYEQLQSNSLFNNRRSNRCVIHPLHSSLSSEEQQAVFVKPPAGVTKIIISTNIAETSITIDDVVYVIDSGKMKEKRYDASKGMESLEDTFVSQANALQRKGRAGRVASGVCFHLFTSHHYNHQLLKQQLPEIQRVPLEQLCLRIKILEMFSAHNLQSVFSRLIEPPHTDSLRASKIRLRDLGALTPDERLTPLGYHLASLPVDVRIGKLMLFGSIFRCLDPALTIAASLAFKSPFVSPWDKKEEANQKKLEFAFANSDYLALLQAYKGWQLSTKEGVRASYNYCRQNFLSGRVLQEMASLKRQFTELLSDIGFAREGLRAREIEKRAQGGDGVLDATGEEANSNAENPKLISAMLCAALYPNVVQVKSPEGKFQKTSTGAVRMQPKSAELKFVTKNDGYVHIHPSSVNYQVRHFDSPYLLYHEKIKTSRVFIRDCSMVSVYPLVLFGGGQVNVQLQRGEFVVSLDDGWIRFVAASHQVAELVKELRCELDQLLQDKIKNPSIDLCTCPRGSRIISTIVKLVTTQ
UniProt Q9NR28: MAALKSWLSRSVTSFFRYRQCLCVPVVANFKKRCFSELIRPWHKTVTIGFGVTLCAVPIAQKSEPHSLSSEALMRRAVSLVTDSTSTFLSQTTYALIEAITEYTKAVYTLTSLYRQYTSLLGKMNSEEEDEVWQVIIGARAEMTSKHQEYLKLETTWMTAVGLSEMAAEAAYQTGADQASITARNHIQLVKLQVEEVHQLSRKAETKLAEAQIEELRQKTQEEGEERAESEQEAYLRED
UniProt Q92499: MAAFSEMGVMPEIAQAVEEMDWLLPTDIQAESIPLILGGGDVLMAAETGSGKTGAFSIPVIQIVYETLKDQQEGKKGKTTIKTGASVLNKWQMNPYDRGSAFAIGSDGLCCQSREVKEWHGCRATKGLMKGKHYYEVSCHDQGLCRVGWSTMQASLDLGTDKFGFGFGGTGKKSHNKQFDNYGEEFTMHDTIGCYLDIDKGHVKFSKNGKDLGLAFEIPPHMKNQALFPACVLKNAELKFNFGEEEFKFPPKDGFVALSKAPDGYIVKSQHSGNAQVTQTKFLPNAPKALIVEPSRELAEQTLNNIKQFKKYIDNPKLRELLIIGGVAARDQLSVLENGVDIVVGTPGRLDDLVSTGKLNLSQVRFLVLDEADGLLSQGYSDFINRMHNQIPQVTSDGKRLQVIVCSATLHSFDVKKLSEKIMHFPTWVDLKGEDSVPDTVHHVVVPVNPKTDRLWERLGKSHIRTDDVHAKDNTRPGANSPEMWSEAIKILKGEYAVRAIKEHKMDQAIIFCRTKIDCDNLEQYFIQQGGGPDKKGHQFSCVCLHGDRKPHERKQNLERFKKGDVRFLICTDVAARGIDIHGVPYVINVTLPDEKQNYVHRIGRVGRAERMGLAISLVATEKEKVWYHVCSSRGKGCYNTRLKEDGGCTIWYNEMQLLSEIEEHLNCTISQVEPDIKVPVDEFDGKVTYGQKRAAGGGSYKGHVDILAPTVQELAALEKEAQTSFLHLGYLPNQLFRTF

Each target was assayed with c1cn2cc(-c3ccc4cn[nH]c4c3)nc(Nc3ccc(N4CCOCC4)cc3)c2n1 [entospletinib] (assay: log2 fold change, soluble protein after heating vs DMSO (PISA); higher = thermal stabilisation; K562 cells, 10 uM, 30 min; active = over 0.2 and 3.5 SD of the protein, either way, in both replicates (recomputed)).
How it was run: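 K562 cells at 2×10^6 cells/mL were exposed to 10 μM compound for 30 min, then aliquots were heated for 3 min across 48°C-58°C, pooled, and extracted in PBS containing 0.5% NP-40 at 4°C. The supernatant after 21,000xg for 90 min was taken as soluble protein and measured by TMTpro 16plex LC-MS/MS with channel sums equalised. Thermal stability is reported relative to control samples, with values from duplicates. Fold changes are given on a log2 scale.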

log2 fold change, inactive:
DFFA (UniProt O00273) -0.035
DESI1 (UniProt Q6ICB0) 0.032
DDX39B isoform 2 (UniProt Q13838) 0.002
DIDO1 (UniProt Q9BTC0) 0.028
DHRS11 (UniProt Q6UWP2) -0.016
DENND1B (UniProt Q6P3S1) 0.138
DNA2 (UniProt P51530) -0.08
DHX8 (UniProt Q14562) 0.022
DDX3X (UniProt O00571) 0.309
DDX23 (UniProt Q9BUQ8) 0.235
DHRS7 (UniProt Q9Y394) 0.031
DERA (UniProt Q9Y315) -0.038
DLST (UniProt P36957) 0.059
DMAC2 isoform 4 (UniProt Q9NW81) 0.019
DNAJA2 (UniProt O60884) -0.079
DDX20 (UniProt Q9UHI6) 0.193
DECR2 (UniProt Q9NUI1) 0.223
DDX18 (UniProt Q9NVP1) 0.05
DHX57 (UniProt Q6P158) 0.045
DDX59 (UniProt Q5T1V6) 0
DIABLO (UniProt Q9NR28) -0.018
DHX29 (UniProt Q7Z478) 0.018
DEK (UniProt P35659) -0.035
DDX1 (UniProt Q92499) 0.063

Retrieved one by one from the entries so far:
log2 fold change, inactive:
DDX3X (UniProt O00571) 0.309
DENND1B (UniProt Q6P3S1) 0.138
